Measured values published in PubChem BioAssay AID540276 (National Center for Advancing Translational Sciences (NCATS), 2011).
Out of some 300,000 compounds screened, about 5,400 (1.8%) were called active. The shares of active, inactive and inconclusive entries below differ from those in the screen. The call rests on the fitted dose curve; tested in HEK293 cells. A potency beside an inconclusive call is a rough fit, not a confirmed value.

Assay: qHTS for inhibitors of binding or entry into cells for Marburg Virus
Details: Marburg virus pseudotyped entry inhibition, cell reporter; series mostly up to 37.8 µM
Potency means the concentration at half of the fitted maximal effect.

Row | SMILES | Potency
1 | CCC(C)N(C(=O)COC(=O)Cc1n[nH]c(=O)c2ccccc12)C1CCS(=O)(=O)C1 (centres undefined) | inactive
2 | CC(/C=C1\SC(=S)N(NC(=O)c2ccc(C)cc2)C1=O)=C\c1ccccc1 | inconclusive: 18.3 µM [inhibitor, single point]
3 | CCOC(=O)N1CCC(NC(=O)c2ccc3c(c2)N(Cc2ccc(Cl)cc2)C(=O)c2ccccc2S3(=O)=O)CC1 | inconclusive: 35.5 µM [inhibitor, single point]
4 | Clc1ccc(OCCN2CCCCC2)c(Cl)c1 | inconclusive: 10.3 µM [inhibitor, partial curve]
5 | Cc1ccc(C(=O)N2CCCC(Nc3cccc(F)c3)C2)cc1N1CCNC1=O (centres undefined) | inactive
6 | CCN(Cc1ccncc1)C(=O)c1cc(COc2ccc(OC)cc2Cl)on1 | inactive
7 | C=CCOC(=O)/C(=C/c1cccc2ccccc12)NC(=O)c1ccccc1 | inactive
8 | O=C(NCc1ccccc1)Nc1cccn(Cc2ccccc2F)c1=O | inconclusive: 0.259 µM [inhibitor, single point]
9 | CCC1CCc2c(sc(NC(=O)C3c4ccccc4Oc4ccccc43)c2C(=O)OC)C1 (centres undefined) | inconclusive: 28.2 µM [inhibitor, single point]
10 | COc1cccc(C(=O)C2CCCN(Cc3ccc(OC)c(Cn4cncn4)c3)C2)c1 (centres undefined) | inconclusive: 31.6 µM [inhibitor, single point]
11 | O=C(N/N=C/c1ccc2c(c1)OCO2)c1ccn(Cc2ccc(Cl)cc2)n1 | inactive
12 | COc1ccccc1CNS(=O)(=O)c1cc(-c2cc(C)no2)ccc1C(C)C | inconclusive: 11.2 µM [inhibitor, single point]
13 | Cc1ccc2c(C)c(C(=O)N(Cc3ccncc3)CC3CCCO3)oc2c1C (centres undefined) | inconclusive: 8.91 µM [inhibitor, partial curve, poor fit]
14 | CN1/C(=C\C(=O)CN2C(=O)NC3(CCCCCC3)C2=O)C(C)(C)c2ccccc21 | inconclusive: 11.2 µM [inhibitor, partial curve, poor fit]
15 | CC(C)c1ccc2oc(-c3ccc(Cl)c(NC(=O)Cc4ccccc4)c3)nc2c1 | inconclusive: 35.5 µM [inhibitor, single point]
16 | COC(=O)c1ccccc1NC(=O)N1CCc2ccc(NC(=O)c3ccccn3)cc2C1 | inconclusive: 5.01 µM [inhibitor, partial curve, poor fit]
17 | COc1ccc(NS(=O)(=O)c2cc3c4c(c2)CCN4C(=O)CC3)c(OC)c1 | inconclusive: 35.5 µM [activator, single point]
18 | Cc1cc(/C=C2/C(=O)NN(c3ccccc3)C2=O)c(C)n1-c1ccc(O)cc1 | active: 7.08 µM
19 | C=CCNc1nc(-c2ccc(OC)cc2OC)cs1 | inconclusive: 0.13 µM [activator, single point]
20 | Cn1cc(Br)c(C(=O)NNC(=O)c2ccccc2)n1 | inconclusive: 31.6 µM [activator, single point]
21 | Cc1ccc(C(=O)O/N=C(\c2ccccc2)c2ccncc2)cc1 | inconclusive: 7.94 µM [inhibitor, partial curve, poor fit]
22 | COc1cc(C2C(C(=O)c3ccco3)=C(O)C(=O)N2c2cc(C)on2)cc(Br)c1O (centres undefined) | inconclusive: 28.2 µM [activator, single point]
23 | Cc1ccc(C)c(NC(=O)c2cc(=O)c3ccccc3o2)c1 | inconclusive: 0.562 µM [activator, full curve, poor fit]

Row | SMILES | Potency
24 | CC(C)c1nnc(NC(=O)c2ccc3ccccc3c2)s1 | inconclusive: 35.5 µM [inhibitor, single point]
25 | O=C(Nc1nc2c(s1)CCCC2)c1ccccc1F | inconclusive: 8.91 µM [inhibitor, partial curve, poor fit]
26 | CCCC(C)C(=O)Nc1nnc(CCc2ccccc2)s1 (centres undefined) | inactive
27 | Nc1ccccc1C(=O)/C=C/c1ccccc1 | inconclusive: 0.0841 µM [activator, full curve, poor fit]
28 | Fc1ccc(C(CCNCc2cccs2)c2ccco2)cc1 (centres undefined) | active: 7.94 µM
29 | O=C(N/N=C/c1ccc(OC(=O)c2ccccc2Cl)cc1)c1cc(O)cc(O)c1 | inactive
30 | CC(=O)N1CCc2cc(S(=O)(=O)NC(C(=O)NCc3ccccc3)C(C)C)ccc21 (centres undefined) | inactive
31 | CCOC(=O)c1ccc(N2C(=O)c3n[nH]c(-c4cccs4)c3C2c2ccc(OC)cc2OC)cc1 (centres undefined) | inconclusive: 20 µM [inhibitor, single point]
32 | CSc1nc(-c2cccs2)c(C#N)c(=O)[nH]1 | inactive
33 | CC(=O)c1cccc(NC(=O)COc2nsnc2N2CCOCC2)c1 | inconclusive: 35.5 µM [inhibitor, single point]
34 | C/C(=N\NC(=O)c1ccc2c(c1)OCO2)c1ccc(NS(C)(=O)=O)cc1 | inactive
35 | O=C(CN1CCN(c2ccc(F)cc2)CC1)Nc1ccccc1Br | inconclusive: 14.1 µM [inhibitor, partial curve, poor fit]
36 | O=C1/C(=C\c2cccs2)N=C(c2cccs2)N1Nc1ccccc1 | inactive
37 | O=[N+]([O-])c1ccn(-c2nc(-c3ccccc3)cc(C(F)(F)F)n2)n1 | inactive
38 | COc1cccc(C(=O)NCCNC(=O)c2ccco2)c1 | inconclusive: 6.31 µM [inhibitor, single point]
39 | O=C(CN1CC[C@@]2(O)CCCC[C@H]2[C@@H]1c1ccc(F)cc1)NCc1ccco1 | inconclusive: 7.08 µM [inhibitor, partial curve, poor fit]
40 | Cn1c(N2CCCC2)nc2c1c(=O)n(Cc1ccc(F)cc1)c(=O)n2C | inconclusive: 7.08 µM [inhibitor, partial curve, poor fit]
41 | CCCn1nnnc1NCc1ccccc1F | inconclusive: 35.5 µM [activator, single point]
42 | C/C(=N/NS(=O)(=O)c1ccc(Cl)cc1)c1cccc(NC(=O)c2ccncc2)c1 | inactive
43 | Clc1ccc(N2CCN(/N=C/c3ccncc3)CC2)cc1 | inconclusive: 17.8 µM [activator, single point]
44 | CC(/C=N/NC(=O)c1cc(-c2ccc(C)o2)[nH]n1)=C\c1ccccc1 | inactive
45 | CCC(=O)Nc1ccc2oc(-c3ccccc3Br)nc2c1 | inconclusive: 0.562 µM [activator, single point]
46 | CC(=O)c1c(C)[nH]c(C(=O)N2CCc3ccccc3C2)c1C | inconclusive: 0.631 µM [activator, full curve, poor fit]

Four of the compounds above, with tabs.
Row	SMILES	Potency
1	CCC(C)N(C(=O)COC(=O)Cc1n[nH]c(=O)c2ccccc12)C1CCS(=O)(=O)C1 (centres undefined)	inactive
4	Clc1ccc(OCCN2CCCCC2)c(Cl)c1	inconclusive: 10.3 µM [inhibitor, partial curve]
29	O=C(N/N=C/c1ccc(OC(=O)c2ccccc2Cl)cc1)c1cc(O)cc(O)c1	inactive
35	O=C(CN1CCN(c2ccc(F)cc2)CC1)Nc1ccccc1Br	inconclusive: 14.1 µM [inhibitor, partial curve, poor fit]

(more compounds)

Row | SMILES | Potency
47 | O=C(Cc1ccccc1)NCCSCc1ccco1 | inactive
48 | Cc1ccc(SCCc2cc[n+](CC(=O)c3ccccc3)cc2)cc1 | inactive
49 | COc1ccc(CN2CCN(Cc3ccccc3F)CC2)cc1 | inconclusive: 35.5 µM [inhibitor, single point]
50 | CCOc1ccccc1Nc1nnc(SCC(=O)Nc2cccc(S(=O)(=O)NC3=NCCCCC3)c2)s1 | inconclusive: 12.6 µM [inhibitor, partial curve]
51 | COc1ccc(C)cc1NC(=S)N1CCN(S(C)(=O)=O)CC1 | inactive
52 | CC(C)(C)c1ccc(Cn2cnc(-c3ccc([N+](=O)[O-])cc3)c2)cc1 | inconclusive: 35.5 µM [inhibitor, single point]
53 | O=C(COC(=O)C1CC(=O)N(Cc2ccccc2)C1)c1ccc(Br)cc1 (centres undefined) | inactive
54 | COc1ccc(CNC(=O)c2cc3oc4ccccc4c3n2C)cc1OC | active: 5.01 µM
55 | S=C(NCCc1ccccc1)N/N=C/c1cccc(Cl)c1Cl | inconclusive: 6.31 µM [activator, single point]
56 | CC(C)[C@H](NC(=O)c1ccccc1)C(=O)OCC(=O)N1CCN(C(=O)c2ccco2)CC1 | inconclusive: 1 µM [activator, partial curve, poor fit]
57 | O=C(NCC1(N2CCCCC2)CCCCC1)c1cccc(S(=O)(=O)Nc2ccccc2Cl)c1 | inconclusive: 6.31 µM [inhibitor, full curve, poor fit]
58 | COc1ccc(-n2c(O)c(/C=N/NS(=O)(=O)c3ccc(C)cc3)c3ccccc3c2=O)cc1OC | inactive
59 | CN(CC(=O)Nc1ccc(N2CCOCC2)cc1)C(=O)CCc1cc(C(C)(C)C)c(O)c(C(C)(C)C)c1 | inactive
60 | COc1ccc(-c2nnn(CC(=O)N(CC(=O)NC3CCCC3)c3ccccc3F)n2)cc1OC | inactive
61 | CCOC(=O)c1c(NC(=O)COc2cccc3c2CCN(C)C3=O)sc2c1CCC2 | inconclusive: 35.5 µM [inhibitor, single point]
62 | CN(C)/N=C/C=C1\CC/C(=C\c2ccc(Br)cc2)C1=O | inconclusive: 7.3 µM [activator, single point]
63 | Cc1ccccc1NC(=O)NCCc1nc2ccccc2[nH]1 | inconclusive: 20 µM [activator, single point]
64 | CC(=O)c1ccc(NC(=O)CCc2ccc(C)o2)cc1 | inconclusive: 6.31 µM [activator, full curve, poor fit]
65 | Cc1cc(Cl)ccc1C(=O)C1CCCN(C(=O)c2cscn2)C1 (centres undefined) | inconclusive: 3.98 µM [inhibitor, partial curve, poor fit]
66 | CCCN(/C=N/c1sc2c(c1C#N)CCCCC2)CCC | inconclusive: 35.5 µM [inhibitor, single point]
67 | O=C(/C=C/c1cccc(Cl)c1)Nn1c(-c2cccs2)nc2ccccc2c1=O | inactive
68 | CCOC(=O)c1c(C)n(CCO)c2ccc(O)cc12 | inconclusive: 6.51 µM [inhibitor, single point]
69 | O=C(O)c1c(C(=O)N2N=C3/C(=C/c4ccccc4)CCCC3C2c2ccccc2)cccc1[N+](=O)[O-] (centres undefined) | inactive
